Test [1] concerns the target T1, GST-NECAP1 PHear (residues 1-133) (UniProt Q8NC96).
T1 sequence: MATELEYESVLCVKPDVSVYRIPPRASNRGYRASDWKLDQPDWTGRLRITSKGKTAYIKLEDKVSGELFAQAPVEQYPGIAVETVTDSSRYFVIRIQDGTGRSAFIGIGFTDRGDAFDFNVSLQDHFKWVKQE
The test is described as follows: affinity purification with mass spectrometry; GST-NECAP1 1–133 on GSH beads, cytosolic extracts of HeLa, RPE and HepG2 cells, buffer T; only the target purified.

Sequences of proteins named here, by UniProt entry; tags and fusion partners are left off.
UniProt Q9Y5X1: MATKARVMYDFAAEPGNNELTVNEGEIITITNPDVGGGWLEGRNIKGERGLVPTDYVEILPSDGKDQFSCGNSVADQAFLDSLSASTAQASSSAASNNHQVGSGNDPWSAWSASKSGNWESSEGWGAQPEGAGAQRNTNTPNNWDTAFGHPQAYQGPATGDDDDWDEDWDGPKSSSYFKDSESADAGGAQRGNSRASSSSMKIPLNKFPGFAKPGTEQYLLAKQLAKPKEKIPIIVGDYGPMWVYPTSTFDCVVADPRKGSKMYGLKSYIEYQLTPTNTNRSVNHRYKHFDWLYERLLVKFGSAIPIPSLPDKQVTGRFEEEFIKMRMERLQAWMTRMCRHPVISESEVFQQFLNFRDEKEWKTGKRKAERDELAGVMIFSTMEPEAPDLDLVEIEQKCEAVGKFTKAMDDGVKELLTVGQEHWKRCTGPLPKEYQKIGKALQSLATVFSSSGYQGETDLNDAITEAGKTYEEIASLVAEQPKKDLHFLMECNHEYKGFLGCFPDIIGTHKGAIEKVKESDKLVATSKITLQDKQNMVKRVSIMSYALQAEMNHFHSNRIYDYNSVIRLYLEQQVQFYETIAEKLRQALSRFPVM
UniProt O08539: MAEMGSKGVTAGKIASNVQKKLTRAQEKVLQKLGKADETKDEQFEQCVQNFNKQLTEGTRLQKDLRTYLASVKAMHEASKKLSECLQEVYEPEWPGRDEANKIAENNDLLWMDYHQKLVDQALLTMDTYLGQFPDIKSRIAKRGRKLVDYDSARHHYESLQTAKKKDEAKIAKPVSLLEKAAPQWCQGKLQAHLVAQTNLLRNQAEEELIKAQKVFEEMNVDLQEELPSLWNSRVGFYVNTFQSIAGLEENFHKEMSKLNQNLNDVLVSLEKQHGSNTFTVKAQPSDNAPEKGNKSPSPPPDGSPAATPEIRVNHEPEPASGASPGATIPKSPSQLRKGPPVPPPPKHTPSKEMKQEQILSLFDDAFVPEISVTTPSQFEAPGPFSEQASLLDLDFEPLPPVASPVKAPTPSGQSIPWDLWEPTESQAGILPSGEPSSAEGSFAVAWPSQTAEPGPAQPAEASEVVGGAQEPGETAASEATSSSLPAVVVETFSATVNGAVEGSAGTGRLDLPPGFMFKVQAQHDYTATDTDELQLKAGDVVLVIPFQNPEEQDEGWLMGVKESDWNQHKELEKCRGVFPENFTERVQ

Test [2] deals with T1, GST-NECAP1 PHear (residues 1-133). The test is described as follows: affinity purification with mass spectrometry; GST-NECAP1 PHear (1-133) WT, R90A, R102A or R90A/R102A on GSH beads, mouse brain lysate, 1 h at 4°C in buffer T; only the target purified.
Test [3] addresses T2, GST-NECAP1 PHear (1-133) R90A (UniProt Q8NC96).
T2 sequence: T1 sequence with R90A
The description is as above.

Numbering of substitutions follows the chain as printed. Results are given in words; binding and its absence hold for the method and conditions named. Binding seen in cells or lysates may run through a third protein. A yes stands for co-enrichment or nearness to the bait. Other partners may have been found. Tags and fused reporters may be left off the sequences shown.

With “SNX9, endogenous in human non-neuronal cells (from UniProt Q9Y5X1 1-595)”, the binding entry in test [1] was “binds”. On to “Amphiphysin2 / Bin1, endogenous in mouse brain lysate (from UniProt O08539 1-588)”, for which the binding result in test [2] and in test [3] was “binds” each time.

B1: Bin2, endogenous in mouse brain lysate (protein, UniProt D3Z6Q9 1-489)
chain: MAEGKAGGAAGLFAKQMQKKFSRAQEKVLQKLGKTVETKDERFEQSASNFYQQQAEGHKLYKDLKNFLSAVKVMHESSKRVSETLQEVYSSDWDGHEDLKAIVGNNDLLWEDYEEKLADQALRTMENYVSQFSEIKERIAKRGRKLVDYDSARHHLEAVQNAKKKDDAKMAKAEEDFSKAQIVFEDLNQELLEELPILYNSRIGCYVTVFQNISNLRDVFYREMSKLNHNLYEVMSKLEKQHSNKVFVVKGLSSSSRRSLVISPPVQSCAASSPVSPVSPVSPVTSPTSPSATSEPESVSATGEELTSEAGGEDSCESQESLKDEEADEAQSETSSSLPACNGPTPAPASPAAEVGSQEEALSSSAQSPGRGQTGKDTPSPGDVVLRARASSEGAEQSKRAASIQRTSAPPSRPPPPRASGSGSCNAPGSPEGSSQLCSPRASPDASSNPEPAETREKEGAGSSGPEEPRAVSTKSATQASGGLVGLFL
Turning to B1, the binding result in test [2] and in test [3] was “binds” throughout.

B2: CALM, endogenous in human non-neuronal cells (protein, UniProt Q13492 1-652)
chain: MSGQSLTDRITAAQHSVTGSAVSKTVCKATTHEIMGPKKKHLDYLIQCTNEMNVNIPQLADSLFERTTNSSWVVVFKSLITTHHLMVYGNERFIQYLASRNTLFNLSNFLDKSGLQGYDMSTFIRRYSRYLNEKAVSYRQVAFDFTKVKRGADGVMRTMNTEKLLKTVPIIQNQMDALLDFNVNSNELTNGVINAAFMLLFKDAIRLFAAYNEGIINLLEKYFDMKKNQCKEGLDIYKKFLTRMTRISEFLKVAEQVGIDRGDIPDLSQAPSSLLDALEQHLASLEGKKIKDSTAASRATTLSNAVSSLASTGLSLTKVDEREKQAALEEEQARLKALKEQRLKELAKKPHTSLTTAASPVSTSAGGIMTAPAIDIFSTPSSSNSTSKLPNDLLDLQQPTFHPSVHPMSTASQVASTWGDPFSATVDAVDDAIPSLNPFLTKSSGDVHLSISSDVSTFTTRTPTHEMFVGFTPSPVAQPHPSAGLNVDFESVFGNKSTNVIVDSGGFDELGGLLKPTVASQNQNLPVAKLPPSKLVSDDLDSSLANLVGNLGIGNGTTKNDVNWSQPGEKKLTGGSNWQPKVAPTTAWNAATMAPPVMAYPATTPTGMIGYGIPPQMGSVPVMTQPTLIYSQPVMRPPNPFGPVSGAQIQFM
For the molecule B2, the binding result in test [1] is reported as “binds”.

B3: Amphiphysin1, endogenous in mouse brain lysate (protein, UniProt Q7TQF7 1-686)
chain: MADIKTGIFAKNVQKRLNRAQEKVLQKLGKADETKDEQFEEYVQNFKRQEAEGTRLQRELRGYLAAIKGMQEASMKLTESLHEVYEPDWYGREDVKMVGEKCDVLWEDFHQKLVDGSLLTLDTYLGQFPDIKNRIAKRSRKLVDYDSARHHLEALQSSKRKDESRISKAEEEFQKAQKVFEEFNVDLQEELPSLWSSRVGFYVNTFKNVSSLEAKFHKEIAVLCHKLYEVMTKLGDQHADKAFSIQGAPSDSGPLRIAKTPSPPEEPSPLPSPTASPNHTLAPASPAPVRPRSPSQTRKGPPVPPLPKVTPTKELKQENIINFFEDNFVPEINVTTPSQNEVLEVKKEETLLDLDFDPFKPDVAPAGSAAATHSPMSQTLPWDLWTTSTDLVQPASGGSFNDFTQAQDTSLFTMQTDQNMAETEQALPTEPQAEEPPATAAAPTAGLDLGLEMEEPKEEAVIPPATDTGETVETAVPTEGAPVEEAEAEKAALPAGEGGSPEGAKIDGESTELAISESPQPVEPEAGAPQVIPSVVIEPASNHEGEGEHQETATGTEPREAAEDVAAQGSAGEKQEVATEPTPLDSQATLPASAGAVDASLSAGDATQELPPGFLYKVETLHDFEAANSDELNLQRGDVVLVVPSDSEADQDAGWLVGVKESDWLQYRDLATYKGLFPENFTRRLE
Take B3: the binding result in test [2] and in test [3] was “binds” throughout.

The record behind these values is publication PMC6706699 (Developmental Cell, 2019).
